Data: publication PMC6937562
Results are given in words; binding and its absence hold for the method and conditions named. Some results given as binding are weak or reduced against the parent protein; the word gives no strength.

Sequences of proteins named here, by UniProt entry; tags and fusion partners are left off. A change or cut given only in a name is not applied to a line headed by its entry. Residues count along the entry.
UniProt P01024: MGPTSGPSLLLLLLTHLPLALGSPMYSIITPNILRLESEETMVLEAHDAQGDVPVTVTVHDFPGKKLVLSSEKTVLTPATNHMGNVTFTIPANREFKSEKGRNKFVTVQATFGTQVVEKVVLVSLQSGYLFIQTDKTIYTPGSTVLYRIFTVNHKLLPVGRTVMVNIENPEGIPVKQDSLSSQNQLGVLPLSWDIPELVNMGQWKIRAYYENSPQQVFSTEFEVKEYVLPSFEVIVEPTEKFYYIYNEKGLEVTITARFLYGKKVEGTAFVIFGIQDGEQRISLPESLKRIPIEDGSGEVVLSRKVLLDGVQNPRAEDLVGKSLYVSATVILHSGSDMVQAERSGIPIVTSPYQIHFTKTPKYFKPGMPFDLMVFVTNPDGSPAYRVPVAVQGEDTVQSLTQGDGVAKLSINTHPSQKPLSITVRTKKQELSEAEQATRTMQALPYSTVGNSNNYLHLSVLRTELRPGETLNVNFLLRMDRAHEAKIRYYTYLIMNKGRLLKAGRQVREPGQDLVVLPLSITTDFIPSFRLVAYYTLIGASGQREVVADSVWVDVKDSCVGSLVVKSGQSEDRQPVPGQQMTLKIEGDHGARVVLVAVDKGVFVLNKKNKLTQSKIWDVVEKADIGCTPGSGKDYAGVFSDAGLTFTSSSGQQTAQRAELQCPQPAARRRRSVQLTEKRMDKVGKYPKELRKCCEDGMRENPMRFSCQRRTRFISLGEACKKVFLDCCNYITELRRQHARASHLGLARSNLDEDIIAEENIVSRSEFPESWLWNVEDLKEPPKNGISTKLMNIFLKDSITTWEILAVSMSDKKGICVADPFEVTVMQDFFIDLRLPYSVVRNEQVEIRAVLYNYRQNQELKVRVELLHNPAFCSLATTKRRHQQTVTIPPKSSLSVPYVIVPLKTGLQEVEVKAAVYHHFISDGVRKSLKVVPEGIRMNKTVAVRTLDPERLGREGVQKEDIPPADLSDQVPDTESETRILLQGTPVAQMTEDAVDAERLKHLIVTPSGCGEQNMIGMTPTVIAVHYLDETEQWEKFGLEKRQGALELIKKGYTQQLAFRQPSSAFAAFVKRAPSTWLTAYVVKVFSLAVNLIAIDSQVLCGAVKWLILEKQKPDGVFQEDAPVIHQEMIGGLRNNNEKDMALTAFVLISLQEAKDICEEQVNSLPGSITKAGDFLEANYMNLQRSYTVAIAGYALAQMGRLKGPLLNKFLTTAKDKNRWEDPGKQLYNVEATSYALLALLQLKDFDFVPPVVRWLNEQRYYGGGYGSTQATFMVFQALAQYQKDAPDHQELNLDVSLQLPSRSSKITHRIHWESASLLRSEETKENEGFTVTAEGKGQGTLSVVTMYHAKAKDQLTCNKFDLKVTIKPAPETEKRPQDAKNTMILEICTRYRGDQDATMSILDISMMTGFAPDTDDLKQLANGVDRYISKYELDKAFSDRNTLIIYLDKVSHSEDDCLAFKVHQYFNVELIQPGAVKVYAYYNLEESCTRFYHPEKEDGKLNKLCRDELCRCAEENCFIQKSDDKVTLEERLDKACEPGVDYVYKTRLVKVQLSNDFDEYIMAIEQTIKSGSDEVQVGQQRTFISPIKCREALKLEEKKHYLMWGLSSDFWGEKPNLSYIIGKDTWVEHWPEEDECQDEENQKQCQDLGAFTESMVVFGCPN
UniProt P08603, residues 19-1231: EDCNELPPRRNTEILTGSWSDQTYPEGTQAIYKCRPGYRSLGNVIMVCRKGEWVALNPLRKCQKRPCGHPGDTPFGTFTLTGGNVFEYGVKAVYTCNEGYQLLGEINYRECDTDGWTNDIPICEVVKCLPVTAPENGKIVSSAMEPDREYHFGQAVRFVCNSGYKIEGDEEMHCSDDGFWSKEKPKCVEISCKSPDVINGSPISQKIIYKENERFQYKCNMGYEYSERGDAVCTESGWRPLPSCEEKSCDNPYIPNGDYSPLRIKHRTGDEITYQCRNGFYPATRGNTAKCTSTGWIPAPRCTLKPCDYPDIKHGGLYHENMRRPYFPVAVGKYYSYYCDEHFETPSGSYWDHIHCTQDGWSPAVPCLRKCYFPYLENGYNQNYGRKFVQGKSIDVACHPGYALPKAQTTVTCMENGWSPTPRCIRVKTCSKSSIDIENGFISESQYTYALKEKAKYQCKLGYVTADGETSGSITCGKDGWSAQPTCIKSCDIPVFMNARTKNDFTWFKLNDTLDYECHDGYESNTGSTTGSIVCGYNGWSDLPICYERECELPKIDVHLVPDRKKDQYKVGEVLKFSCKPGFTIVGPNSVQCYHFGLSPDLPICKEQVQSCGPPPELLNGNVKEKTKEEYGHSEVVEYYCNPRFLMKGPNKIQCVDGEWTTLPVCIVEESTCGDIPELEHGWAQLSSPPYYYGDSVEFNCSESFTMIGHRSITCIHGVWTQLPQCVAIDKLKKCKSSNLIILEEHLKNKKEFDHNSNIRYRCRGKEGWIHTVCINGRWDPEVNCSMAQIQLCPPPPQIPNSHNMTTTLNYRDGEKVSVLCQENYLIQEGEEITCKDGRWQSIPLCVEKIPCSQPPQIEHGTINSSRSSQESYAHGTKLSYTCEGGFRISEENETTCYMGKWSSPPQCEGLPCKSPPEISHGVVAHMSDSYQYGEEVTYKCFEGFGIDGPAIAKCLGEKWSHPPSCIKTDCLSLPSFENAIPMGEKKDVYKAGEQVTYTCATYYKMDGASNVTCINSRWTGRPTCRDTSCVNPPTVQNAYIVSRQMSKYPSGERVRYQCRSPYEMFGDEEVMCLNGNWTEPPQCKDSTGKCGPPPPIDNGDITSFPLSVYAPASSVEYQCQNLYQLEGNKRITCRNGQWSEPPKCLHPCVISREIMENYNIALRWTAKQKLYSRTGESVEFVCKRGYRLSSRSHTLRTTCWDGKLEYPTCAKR

Legend:
C3b (human) [1] = biological target: C3b (human) (UniProt P01024); test: AFM force-distance measurements; FH randomly amine-coupled directly to the SAM on the AFM probe tip; C3b amine-coupled to the SAM on a gold wafer; PBS, laboratory at 22 °C; single (type 3) detachment events; both purified
C3b (human) [2] = biological target: C3b (human) (UniProt P01024); test: SPR; commercial C1 chip with the same C3b loading and identical reagents as the HJEM2 experiment; FH flowed; not shown; both purified

factor H (from UniProt P08603 19-1231) was tested, and the binding (C3b (human) [1]) was “binds” and the binding (C3b (human) [2]) was “binds”.
